PubChem BioAssay AID1224830 – NIAID, 2016
Shown is an unselected part of about 18,000 reagents. About 2,900 of all reagents (16%) count as active. 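Calls are made per well; low scores hint the gene aids the LPS response, high scores that it dampens it.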 The numbers tell different reagents against one gene apart. Repeated entries: four replicate wells of each siRNA pool.

Aim: 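Host factors that control LPS-induced TNF expression in human macrophages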 (primary screen)
System: human THP-1 monocytic leukaemia cells, TNF dual-luciferase reporter clone, PMA-differentiated to macrophage-like cells
Knock-down reagent: siRNA pool against human genes, 50 nM
Timing: LPS for 4 h, given about 3 days after siRNA transfection
Challenge: bacterial LPS (TLR4 ligand), 10 ng/ml
Measured: 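Ratio of firefly to renilla light, scaled to the plate median and expressed as a robust z-score per replicate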
Direction: TNF reporter robust z-score: higher = stronger TNF reporter response to LPS
Active means: 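a well is active when its z-score exceeds 2.8 or falls below -1.5; control wells carry no call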

NEO1
- TNF reporter robust z-score: 0.52
- outcome: inactive

NEO1
- TNF reporter robust z-score: 0.23
- outcome: inactive

NEO1
- TNF reporter robust z-score: 0.66
- outcome: inactive

NEO1
- TNF reporter robust z-score: 1.47
- outcome: inactive

HCFC2
- TNF reporter robust z-score: 1.33
- outcome: inactive

HCFC2
- TNF reporter robust z-score: 1.37
- outcome: inactive

HCFC2
- TNF reporter robust z-score: 1.64
- outcome: inactive

HCFC2
- TNF reporter robust z-score: 0.29
- outcome: inactive

GOLGA6B
- TNF reporter robust z-score: -0.31
- outcome: inactive

GOLGA6B
- TNF reporter robust z-score: 0.64
- outcome: inactive

GOLGA6B
- TNF reporter robust z-score: 1.77
- outcome: inactive

GOLGA6B
- TNF reporter robust z-score: -0.94
- outcome: inactive

ZNF689
- TNF reporter robust z-score: -0.1
- outcome: inactive

ZNF689
- TNF reporter robust z-score: 0.97
- outcome: inactive

ZNF689
- TNF reporter robust z-score: 0.05
- outcome: inactive

ZNF689
- TNF reporter robust z-score: 0.32
- outcome: inactive

TSLIG2
- TNF reporter robust z-score: 1.06
- outcome: inactive

TSLIG2
- TNF reporter robust z-score: -0.26
- outcome: inactive

TSLIG2
- TNF reporter robust z-score: -0.71
- outcome: inactive

TSLIG2
- TNF reporter robust z-score: -1.27
- outcome: inactive

CWC22
- TNF reporter robust z-score: -1.53
- outcome: active

CWC22
- TNF reporter robust z-score: 0.43
- outcome: inactive

CWC22
- TNF reporter robust z-score: 0
- outcome: inactive

CWC22
- TNF reporter robust z-score: -0.37
- outcome: inactive

ZDHHC8
- TNF reporter robust z-score: -0.2
- outcome: inactive

ZDHHC8
- TNF reporter robust z-score: -1
- outcome: inactive

ZDHHC8
- TNF reporter robust z-score: -1.33
- outcome: inactive

ZDHHC8
- TNF reporter robust z-score: 0.28
- outcome: inactive

MCCC2
- TNF reporter robust z-score: -0.89
- outcome: inactive

MCCC2
- TNF reporter robust z-score: -0.73
- outcome: inactive

MCCC2
- TNF reporter robust z-score: -0.54
- outcome: inactive

MCCC2
- TNF reporter robust z-score: 0.1
- outcome: inactive

NPR3 #1
- TNF reporter robust z-score: 0.11
- outcome: inactive

NPR3 #1
- TNF reporter robust z-score: 0.4
- outcome: inactive

NPR3 #2
- TNF reporter robust z-score: 1.08
- outcome: inactive

NPR3 #2
- TNF reporter robust z-score: -0.27
- outcome: inactive

NPR3 #2
- TNF reporter robust z-score: 0.17
- outcome: inactive

NPR3 #2
- TNF reporter robust z-score: 2.01
- outcome: inactive

OFCC1
- TNF reporter robust z-score: -1.38
- outcome: inactive

OFCC1
- TNF reporter robust z-score: -1.67
- outcome: active

OFCC1
- TNF reporter robust z-score: -1.43
- outcome: inactive

OFCC1
- TNF reporter robust z-score: -1.54
- outcome: active

CD302
- TNF reporter robust z-score: -0.9
- outcome: inactive

CD302
- TNF reporter robust z-score: -1.3
- outcome: inactive

CD302
- TNF reporter robust z-score: -1.38
- outcome: inactive

CD302
- TNF reporter robust z-score: -0.61
- outcome: inactive

TGFB3
- TNF reporter robust z-score: 2.77
- outcome: inactive

TGFB3
- TNF reporter robust z-score: 2.51
- outcome: inactive

TGFB3
- TNF reporter robust z-score: 0.64
- outcome: inactive

TGFB3
- TNF reporter robust z-score: 2.06
- outcome: inactive

ADIG
- TNF reporter robust z-score: 0.05
- outcome: inactive

ADIG
- TNF reporter robust z-score: -0.34
- outcome: inactive

ADIG
- TNF reporter robust z-score: 0.12
- outcome: inactive

ADIG
- TNF reporter robust z-score: 0.36
- outcome: inactive

DCLRE1C
- TNF reporter robust z-score: -0.5
- outcome: inactive

DCLRE1C
- TNF reporter robust z-score: 0.75
- outcome: inactive

DCLRE1C
- TNF reporter robust z-score: 0.03
- outcome: inactive

DCLRE1C
- TNF reporter robust z-score: 0.15
- outcome: inactive

ZNF630
- TNF reporter robust z-score: 1.01
- outcome: inactive

ZNF630
- TNF reporter robust z-score: -0.53
- outcome: inactive

ZNF630
- TNF reporter robust z-score: 1.22
- outcome: inactive

ZNF630
- TNF reporter robust z-score: 1.73
- outcome: inactive
